# Test results published in PubChem BioAssay AID1671190 (National Center for Advancing Translational Sciences (NCATS), 2021).
# By UniProt entry, the sequences of proteins in these tests, tags left out. Where a name states a change or a piece, a line headed by the entry shows the natural chain unless it says otherwise.
# UniProt P18054: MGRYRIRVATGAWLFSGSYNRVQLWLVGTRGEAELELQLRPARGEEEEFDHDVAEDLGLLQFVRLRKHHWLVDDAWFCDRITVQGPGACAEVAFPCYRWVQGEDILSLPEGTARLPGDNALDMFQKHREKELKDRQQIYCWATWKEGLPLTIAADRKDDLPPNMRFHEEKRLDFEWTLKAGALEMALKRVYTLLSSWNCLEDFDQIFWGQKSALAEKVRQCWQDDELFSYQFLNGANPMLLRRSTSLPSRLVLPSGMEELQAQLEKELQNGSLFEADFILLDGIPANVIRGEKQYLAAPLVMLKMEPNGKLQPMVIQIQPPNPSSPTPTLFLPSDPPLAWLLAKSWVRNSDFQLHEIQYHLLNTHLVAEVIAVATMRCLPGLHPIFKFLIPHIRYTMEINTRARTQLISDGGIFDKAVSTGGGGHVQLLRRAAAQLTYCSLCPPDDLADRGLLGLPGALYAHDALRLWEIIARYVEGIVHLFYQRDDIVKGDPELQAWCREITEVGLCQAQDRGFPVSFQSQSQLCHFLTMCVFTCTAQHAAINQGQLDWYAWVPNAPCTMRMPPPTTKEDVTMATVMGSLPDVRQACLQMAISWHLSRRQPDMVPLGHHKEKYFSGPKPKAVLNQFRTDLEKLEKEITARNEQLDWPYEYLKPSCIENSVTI
# The campaign covered roughly 580,000 compounds. About 6,100 (1.1%) were called active. Inconclusive results, whose numbers are uncertain, are shown with a selection of clear calls. The call rests on the fitted dose curve; in most records, active means well fitted inhibition curve with a large enough effect; inconclusive means small, poorly fitted or top-dose-only effect, or another doubt; inactive means no such curve, though single readings can be large or run the other way. Potencies beside an inconclusive call are fits to weak or partial responses and may not hold up.
# Biological target: Polyunsaturated fatty acid lipoxygenase ALOX12 (Homo sapiens) (UniProt P18054)
# Assay: Primary qHTS assay for inhibitors of human arachidonate 12S-lipoxygenase (ALOX12): Round 2
# Details: purified 12hLO, xylenol orange hydroperoxide absorbance; activity change, negative = inhibition: at 108 µM (top of the series) unless noted
# Summary of the method: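 Purified human 12hLO (150 nM final) in 25 mM Hepes, 0.01% Triton X-100, pH 7.0 was preincubated 15 min at room temperature with compound. Then 40 uM arachidonic acid was added, 30 min. Hydroperoxide was read by Fe-XO absorbance ratio 573/405 nm.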
# On the % scale 0 is the no-effect control and ±100 the full control effect; potency means the concentration at half of the fitted maximal effect.
SMILES,Potency,"activity change, negative = inhibition"
Nc1ccc2c(c1)CCC(=O)N2,"inconclusive: 31.6 µM [inhibitor, partial curve, poor fit]",
O=C(NCc1ccco1)C1c2ccccc2C(=O)N(C2CCCC2)C12CCCC2 (stereo not drawn),,inactive: 54.7%
O=C(Nc1ccc(Cl)cc1)c1nc2ccccc2nc1N1CCCC1,"inconclusive: 44.7 µM [inhibitor, partial curve, poor fit]",
CCOc1ccccc1NC(=O)Cn1ncc2c([nH]c3ccccc32)c1=O,,inconclusive: -31.5% [inhibitor]
N#Cc1ccc(-c2ccc(OCc3ccc(C(N)=O)cc3)cc2)cc1,"inconclusive: 126 µM [inhibitor, single point]",
O=C(NCCN1CCCC(O)C1)c1cc(COc2cccc(C(F)(F)F)c2)on1 (stereo not drawn),"inconclusive: 28.2 µM [inhibitor, single point]",
COC(=O)c1cccc(COc2ccc(Br)cc2)c1,"inconclusive: 20 µM [inhibitor, full curve, poor fit]",
CCc1nc2c(OCC3CCCCC3)cccn2c1N(C)C(=O)c1ccc(OC)cc1,"inconclusive: 44.7 µM [inhibitor, partial curve, poor fit]",
Cc1ccc(S(=O)(=O)NCC(=O)NCC(=O)OCC(=O)N2CC(=O)Nc3ccccc32)cc1C,,inactive: 4.8%
Cc1nc(CN2Cc3nc(OCc4ccc(F)cc4)ccc3OCC2=O)cs1,"inconclusive: 5.62 µM [inhibitor, full curve]",
Cc1ccccc1CSCC1Nc2ccc(C(=O)NCCc3ccccc3)cc2NC1=O (stereo not drawn),"inconclusive: 1.41 µM [inhibitor, full curve, poor fit]",
CC(=O)CCS(=O)(=O)c1ccc(NC(C)=O)cc1,,inactive: 23.6%
CCOC(=O)NC(C(F)(F)F)(C(F)(F)F)P(=O)(c1ccccc1)c1ccccc1,"inconclusive: 31.6 µM [inhibitor, single point]",
CCN(C(=O)c1cc2c(=O)n(CC)c3ccccc3c2s1)c1cccc(C)c1,"inconclusive: 56.2 µM [inhibitor, partial curve, poor fit]",
CCOc1ccc(CN2CCN(Cc3ccc4cc(F)ccc4n3)CC2CCO)cc1 (stereo not drawn),"inconclusive: 44.7 µM [inhibitor, partial curve, poor fit]",
COc1ccc(CNc2ncnc3ccc(-c4ccccc4C#N)cc23)c(OC)c1,"inconclusive: 3.16 µM [inhibitor, full curve, poor fit]",
CN=c1scc(-c2ccco2)n1/N=C/c1ccc(O)c(O)c1,active: 39.8 µM,
Cn1cc(CN2CCCC23CCN(c2ncccn2)CC3)c(-c2ccccc2)n1,"inconclusive: 50.1 µM [inhibitor, partial curve, poor fit]",

# Shown with bars between the fields: entries from further up.
SMILES | Potency | activity change, negative = inhibition
O=C(NCCN1CCCC(O)C1)c1cc(COc2cccc(C(F)(F)F)c2)on1 (stereo not drawn) | inconclusive: 28.2 µM [inhibitor, single point] | 
COC(=O)c1cccc(COc2ccc(Br)cc2)c1 | inconclusive: 20 µM [inhibitor, full curve, poor fit] | 
CCc1nc2c(OCC3CCCCC3)cccn2c1N(C)C(=O)c1ccc(OC)cc1 | inconclusive: 44.7 µM [inhibitor, partial curve, poor fit] | 
Cc1ccc(S(=O)(=O)NCC(=O)NCC(=O)OCC(=O)N2CC(=O)Nc3ccccc32)cc1C |  | inactive: 4.8%
